Data as given in PubChem BioAssay AID1259308 (NCATS, 2017)
Assay: 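Knock-downs that increase output of a recombinant reporter protein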 (primary screen). Cell system: human HEK293 embryonic kidney cells stably expressing firefly luciferase (HEK-CMV-Luc2-Hygro). Reagent: single siRNA against human genes, 0.8 pmol siRNA per well. Time to read-out: 72 h. Measurement: 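Luciferase light (ONE-Glo) measured on one replicate plate set and viability (CellTiter-Glo) on the other, scaled to a negative control siRNA, with robust z-scores and luciferase per cell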. Scale: total luciferase, z-score and total luciferase, % of control: higher = more reporter protein produced; luciferase per cell, z-score: higher = more reporter output per viable cell; viable cells, % of control: higher = more viable cells. Call rule: 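Active when the median/MAD z-score for overall luciferase is greater than 3; a gene was taken forward for validation with new siRNAs if at least two of its three siRNAs passed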. Meaning of the calls: active = raised luciferase; inactive = no rise.
Shown is an unselected part of about 59,000 reagents. Over the whole deposit, about 1,510 (2.6%) are marked active. 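Calls use total luciferase alone and ignore viability, so some active siRNAs may act by altering cell number.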 Reagents against one gene are numbered here.

no.	gene knocked down	reagent	total luciferase, z-score	total luciferase, % of control	luciferase per cell, z-score	viable cells, % of control	activity call
1	SPATC1L (GeneID 84221)	1	0.452	90.9	0.127	98.2	inactive
2	SPATC1L (GeneID 84221)	2	-0.697	68	-1.18	104	inactive
3	SPATC1L (GeneID 84221)	3	-0.143	79.1	-0.452	99.5	inactive
4	RPL10A (GeneID 4736)	1	-2.66	29	-1.6	49.4	inactive
5	RPL10A (GeneID 4736)	2	-2.4	34.2	-0.00238	38.2	inactive
6	RPL10A (GeneID 4736)	3	-2.46	33	-2.02	62.7	inactive
7	NT5C3A (GeneID 51251)	1	0.348	88.8	-0.305	108	inactive
8	NT5C3A (GeneID 51251)	2	-0.22	77.5	0.259	80.9	inactive
9	NT5C3A (GeneID 51251)	3	0.49	91.6	1.48	69.4	inactive
10	ZNF644 (GeneID 84146)	1	0.409	90	0.952	78.3	inactive
11	ZNF644 (GeneID 84146)	2	-1.69	48.3	-2	91.3	inactive
12	ZNF644 (GeneID 84146)	3	0.261	87.1	0.513	85	inactive
13	NDUFA6 (GeneID 4700)	1	-0.243	77	-0.761	105	inactive
14	NDUFA6 (GeneID 4700)	2	1.55	113	0.507	110	inactive
15	NDUFA6 (GeneID 4700)	3	-0.558	70.8	-0.479	89.7	inactive
16	TMX3 (GeneID 54495)	1	-0.274	76.4	-0.602	100	inactive
17	TMX3 (GeneID 54495)	2	0.71	96	0.268	100	inactive
18	TMX3 (GeneID 54495)	3	0.0176	82.2	0.0442	90.8	inactive
19	KBTBD3 (GeneID 143879)	1	0.457	91	0.588	87.1	inactive
20	KBTBD3 (GeneID 143879)	2	-0.149	78.9	-0.366	97.1	inactive
21	KBTBD3 (GeneID 143879)	3	-0.533	71.3	-0.259	85.3	inactive
22	TM2D3 (GeneID 80213)	1	-0.419	73.6	0.164	78.7	inactive
23	TM2D3 (GeneID 80213)	2	-1.52	51.6	0.607	49.1	inactive
24	TM2D3 (GeneID 80213)	3	-1.28	56.5	0.706	52.4	inactive
25	CYP4F8 (GeneID 11283)	1	-0.554	70.9	-0.91	101	inactive
26	CYP4F8 (GeneID 11283)	2	0.533	92.5	0.718	85.5	inactive
27	CYP4F8 (GeneID 11283)	3	0.34	88.7	-0.508	113	inactive
28	PSMC1 (GeneID 5700)	1	-0.0124	81.6	3.86	33	inactive
29	PSMC1 (GeneID 5700)	2	1.34	109	2.95	55.7	inactive
30	PSMC1 (GeneID 5700)	3	-1.34	55.2	3.85	22.4	inactive
31	ALDH9A1 (GeneID 223)	1	-0.192	78.1	-0.693	105	inactive
32	ALDH9A1 (GeneID 223)	2	-0.661	68.7	-0.536	88.5	inactive
33	ALDH9A1 (GeneID 223)	3	-0.813	65.7	-0.185	77.1	inactive
34	HSPA2 (GeneID 3306)	1	0.438	90.6	0.109	98.4	inactive
35	HSPA2 (GeneID 3306)	2	0.491	91.7	0.516	89.4	inactive
36	HSPA2 (GeneID 3306)	3	-0.453	72.9	0.000344	81.4	inactive
37	RIOX1 (GeneID 79697)	1	-0.339	75.1	0.365	76.3	inactive
38	RIOX1 (GeneID 79697)	2	-0.0736	80.4	-0.107	92.4	inactive
39	RIOX1 (GeneID 79697)	3	-1.35	55	-1.4	88.7	inactive
40	GATD1 (GeneID 347862)	1	1.58	113	1.13	94.1	inactive
41	GATD1 (GeneID 347862)	2	1.35	109	0.658	102	inactive
42	GATD1 (GeneID 347862)	3	-1.17	58.6	-1.29	92	inactive
43	OS9 (GeneID 10956)	1	-0.364	74.7	-0.887	105	inactive
44	OS9 (GeneID 10956)	2	0.625	94.3	0.618	89.6	inactive
45	OS9 (GeneID 10956)	3	2.36	129	1.42	99.2	inactive
46	TSHZ3 (GeneID 57616)	1	0.0292	82.5	0.103	89.7	inactive
47	TSHZ3 (GeneID 57616)	2	0.495	91.7	-0.0397	104	inactive
48	TSHZ3 (GeneID 57616)	3	-0.124	79.4	0.0407	87.8	inactive
49	RALGPS2 (GeneID 55103)	1	-0.115	79.6	-0.118	91.7	inactive
50	RALGPS2 (GeneID 55103)	2	-0.179	78.3	0.634	74.1	inactive
51	RALGPS2 (GeneID 55103)	3	-0.885	64.3	-1.13	96.7	inactive
52	NAA60 (GeneID 79903)	1	0.753	96.9	1.41	74.7	inactive
53	NAA60 (GeneID 79903)	2	1.01	102	0.577	97.9	inactive
54	NAA60 (GeneID 79903)	3	-0.737	67.2	-0.96	96.7	inactive
55	STEEP1 (GeneID 63932)	1	1.76	117	0.856	104	inactive
56	STEEP1 (GeneID 63932)	2	-0.708	67.8	-0.755	92.4	inactive
57	STEEP1 (GeneID 63932)	3	0.381	89.5	0.303	92.3	inactive
58	ZBED1 (GeneID 9189)	1	0.721	96.2	0.554	92.9	inactive
59	ZBED1 (GeneID 9189)	2	-1.68	48.5	-1.32	76.8	inactive
60	ZBED1 (GeneID 9189)	3	0.315	88.1	0.693	82.1	inactive
61	SYT8 (GeneID 90019)	1	1.27	107	1.79	74.7	inactive
62	SYT8 (GeneID 90019)	2	-0.948	63	-0.448	79.3	inactive
63	SYT8 (GeneID 90019)	3	2.04	123	2.5	71	inactive
64	ST8SIA5 (GeneID 29906)	1	0.812	98	2.27	60.3	inactive
65	ST8SIA5 (GeneID 29906)	2	-0.514	71.7	-0.808	99.1	inactive
66	ST8SIA5 (GeneID 29906)	3	-0.493	72.1	-0.159	84	inactive
67	SOD2 (GeneID 6648)	1	0.0665	83.2	0.0175	92.6	inactive
68	SOD2 (GeneID 6648)	2	-0.317	75.6	-0.712	102	inactive
69	SOD2 (GeneID 6648)	3	-0.395	74	0.452	73.5	inactive
70	QDPR (GeneID 5860)	1	-1.08	60.5	-1.35	96.4	inactive
71	QDPR (GeneID 5860)	2	4.61	174	2.43	102	active
72	QDPR (GeneID 5860)	3	0.15	84.9	0.345	86.6	inactive
73	DSCAM (GeneID 1826)	1	-0.25	76.9	-1.05	113	inactive
74	DSCAM (GeneID 1826)	2	-0.416	73.6	-0.849	103	inactive
75	DSCAM (GeneID 1826)	3	-1.06	60.7	-1.19	92.8	inactive
